Measured values reported in patent publication US8956878B2, “Polypeptides with affinity for heat shock proteins (HSPS) and HSP associated complexes (HACS) and their use in diagnosis and therapy” (Atlantic Cancer Research Institute, priority 2011, dated 2015).

Tested on: Nalm-6 cytoplasmic and membrane associated proteins
Test: CHIEF against subcellular fractions of Nalm-6 leukemia cells
Format: binding
Excerpt: Abbreviations: φ=No peptide added at anode; MBPWT1, MBP100-117_WT1 117-134; MBP, MBP100-117; WT1, WT1 117-134. […] The arrowheads in lanes 2, 6, 10 (top), 14 and 18 (top) indicate expected CHIEF complex focusing near the 6.8 pl marker. The arrowheads in lanes 10 (bottom) and 18 (bottom) indicate the appearance of a CHIEF complex focusing near the 7.4 pl marker. The arrowheads in lane 5 and 19 (top and bottom) indicate where there has been cross over of the MBP117-134WT1 peptide into an adjacent lane causing a drive-by or swipe CHIEF complex formation (lane 5, lane 19).
Three identical lanes were prepared for the generation of CHIEF complexes between MBP100-117WT1 117-134 (80 μg) and 10 μg of Nalm-6 membrane associated proteins.
The example investigates the possibility that the bMBPWT1 peptide binds HSPs directly from cell lysates in a similar manner to when single recombinant HSP was used as a counter ion. Cancer cells are addicted to the overexpression of HSPs to support growth under poor environmental conditions, to facilitate the function of otherwise unstable oncoproteins and the ablation of apoptosis. Most, if not all, cancer cells should provide a rich source of human HSPs to serve as complex forming counter migrants for the MBP peptide co-synthesised with WT1 and SW peptides. To investigate this possibility, subcellular fractions enriched in cytoplasmic proteins (extraction buffer 1) and membrane associated proteins (extraction buffer 2) were prepared from a leukemia cell line, Nalm-6, and a breast cancer cell line, MDA MB231 (FIG. 7). The individual MBP and WT1 peptides were also included as potential counter migrants.
Bands representing counter migrant complexes typical of the pl ˜6.8 and pl ˜7.4 observed in FIG. 7 were excised by scalpel. The gel pieces were boiled in Laemmli buffer and resolved by SDS-PAGE (FIG. 8 a-b). In the manner previously described for the detection of proteins binding to corynebacterial HSP70, it was anticipated that binding partners of the bMBPWT1 peptide would become denatured and migrate into the SDS-PAGE gel. […]

[1] = Nalm-6 membrane associated proteins, second dimension SDS-PAGE

## MBPWT1: MBP peptide 100-117 co-synthesised with Wilms tumor protein 1 peptide 117-134 (PSQGKGRGLSLSRFSWGAPSQASSGQARMFPNAPYL)
80 μg peptide, 10 μg subcellular fraction
  focusing position (pI marker) of CHIEF complex with Nalm-6 membrane associated fraction: ~7.4
[1]
  proteins identified by mass spectrometry in the counter migrant complex focusing near 6.8: HSP90, HSP60, calreticulin, 14-3-3 zeta and calmodulin
  proteins identified by mass spectrometry in the counter migrant complex focusing near pI 7.4: HSP90 (both cytoplasmic and gp96 isoforms), and at least 20 other proteins that were not heat shock proteins
